Source: article PMC12001207 (The FEBS journal, 2025)

What was measured:
SUCNR1-mVenus (human) [1] = target: T1, SUCNR1-mVenus (human) (UniProt Q9BXA5); experiment: condition: only stimulated with 100 μM compound 31 instead of SUC or CES; FRET or BRET; living HEK293-T cells co-transfected with SUCNR1-mVenus and arrestin-3-Nluc; stimulated with 100 μM compound 31
T1 sequence: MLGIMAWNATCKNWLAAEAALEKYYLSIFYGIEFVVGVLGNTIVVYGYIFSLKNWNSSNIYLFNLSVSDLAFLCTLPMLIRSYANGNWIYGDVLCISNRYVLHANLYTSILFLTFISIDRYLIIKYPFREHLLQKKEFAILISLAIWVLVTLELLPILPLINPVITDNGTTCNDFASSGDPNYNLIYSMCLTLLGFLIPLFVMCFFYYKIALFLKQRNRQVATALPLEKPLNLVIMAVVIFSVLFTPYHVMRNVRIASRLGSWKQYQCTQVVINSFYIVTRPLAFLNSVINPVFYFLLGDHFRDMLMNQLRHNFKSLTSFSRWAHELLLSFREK

SUCNR1-mVenus (human) [2] = target: T1, SUCNR1-mVenus (human); experiment: FRET or BRET; living HEK293-T cells co-transfected with SUCNR1-mVenus and arrestin-3-Nluc; stimulated with 100 or 200 μM succinate (SUC) or cis-epoxysuccinate (CES); with or without 30 min pre-incubation with 100 nM NF56-EJ40; PBS with glucose or glutamine; BRET ratio = acceptor emission/donor emission

Substance: arrestin-3-Nluc
- binding (SUCNR1-mVenus (human) [1]): no binding
- binding (SUCNR1-mVenus (human) [2]): binds

These are yes or no findings as the source states them, for the method shown. In cells and extracts the contact can be indirect. For some assays here: A result given as binding can be weak or reduced; the word gives no strength.
